The record followed here is article PMC6925144, “A prospective compound screening contest identified broader inhibitors for Sirtuin 1” (Scientific Reports, 2019).

Sequences of proteins named here, by UniProt entry; tags and fusion partners are left off. Residues count along the entry.
UniProt Q96EB6, 2-747 limits assumed: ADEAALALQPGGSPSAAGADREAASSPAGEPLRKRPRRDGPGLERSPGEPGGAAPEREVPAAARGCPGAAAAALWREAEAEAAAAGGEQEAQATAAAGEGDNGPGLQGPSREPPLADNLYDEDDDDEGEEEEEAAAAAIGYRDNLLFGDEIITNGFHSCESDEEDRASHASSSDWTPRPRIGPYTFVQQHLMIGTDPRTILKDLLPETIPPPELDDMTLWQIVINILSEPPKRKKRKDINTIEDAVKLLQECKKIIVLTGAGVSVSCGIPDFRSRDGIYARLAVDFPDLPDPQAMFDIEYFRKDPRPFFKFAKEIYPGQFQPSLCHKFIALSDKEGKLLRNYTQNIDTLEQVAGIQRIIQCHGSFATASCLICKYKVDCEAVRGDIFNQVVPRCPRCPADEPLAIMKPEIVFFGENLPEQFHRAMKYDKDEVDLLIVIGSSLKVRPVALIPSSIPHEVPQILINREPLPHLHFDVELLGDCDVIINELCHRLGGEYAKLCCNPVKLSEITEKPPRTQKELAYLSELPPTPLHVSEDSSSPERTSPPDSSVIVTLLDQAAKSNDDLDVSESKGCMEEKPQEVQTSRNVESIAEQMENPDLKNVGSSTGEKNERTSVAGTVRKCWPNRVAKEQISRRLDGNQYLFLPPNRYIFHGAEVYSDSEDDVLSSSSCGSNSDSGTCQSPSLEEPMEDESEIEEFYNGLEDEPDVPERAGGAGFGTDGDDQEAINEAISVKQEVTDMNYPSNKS

Over roughly 3,200 compounds, “TSA(with NAD+) / Primary screening (TSA) / delta Tm (K)” has its median near -0.04; the highest 2% begin near 0.37. This is one part of the list.

The target of this test is NAD-dependent deacetylase Sirtuin 1 (human, UniProt Q96EB6). The test can be described thus: primary screen, delta tm. On the set-up: single well (n = 1, as 'the same TSA'). The following applies: 10 µM.
For the compound `O=C1CC(C(=O)Nc2ccc(-c3csc(N4CCOCC4)n3)cc2)c2ccc(F)cc2N1` (centres unmarked), the “TSA(with NAD+) / Primary screening (TSA) / delta Tm (K)” value is reported as -0.23 K.
Under `CCCCC(N)CN` (centres unmarked) stands -0.28 K; under `CC(C)n1nc(C(=O)Nc2cccc(S(=O)(=O)NCc3ccco3)c2)c2ccccc2c1=O`, -0.01 K.
Under `Cc1cc2oc(=O)cc(CN3CCC(NS(C)(=O)=O)CC3)c2cc1C` stands 0.03 K.
The same measure for `CCN(C(=O)CSc1nnc(NC2CCCCC2)s1)C1CCS(=O)(=O)C1` (centres unmarked): -0.11 K.
For the compound `COc1ccc(C2C(C(=O)c3ccc(F)cc3)=C(O)C(=O)N2CCCN2CCOCC2)cc1` (centres unmarked), the “TSA(with NAD+) / Primary screening (TSA) / delta Tm (K)” value is -0.01 K.
Under `CC(NC(=O)c1ccc2c(c1)CCC(=O)N2)c1ccc2c(c1)CC(=O)N2` (centres unmarked) stands -0.06 K; under `NC(=O)c1cnc(N2CCCC(c3nnc[nH]3)C2)c(Cl)c1` (centres unmarked), 0.25 K.
Under `Cc1cc(C=C2C(=O)NC(=S)NC2=O)c(C)n1-c1ccc(F)cc1` stands -0.48 K.
The same measure for `O=C(O)[C@@H](O)[C@H](O)C(=O)O`: -0.06 K.
On to `O=C(Cc1cccc2ccccc12)NCCN/C(O)=C1\N=CC=CC1=O`, for which the “TSA(with NAD+) / Primary screening (TSA) / delta Tm (K)” value is given as -0.01 K.
On to `COc1ccc(-c2cc(NC(=O)Cc3n[nH]c(=O)c4ccccc34)ccc2OC(F)F)cc1`, for which the “TSA(with NAD+) / Primary screening (TSA) / delta Tm (K)” value was 0.07 K.
Under `O=C(NCC(=O)N1CC=C(c2ccccc2)CC1)NCc1ccccc1` stands 0.02 K.
As for `O=S1CCN(c2ncnc3ccsc23)CC1`, the “TSA(with NAD+) / Primary screening (TSA) / delta Tm (K)” value was -0.04 K.
Take `O=c1[nH]c(CNc2ccc3c(c2)OCO3)nc2ccsc12`: the “TSA(with NAD+) / Primary screening (TSA) / delta Tm (K)” value is recorded as -0.12 K.
Take `CN(CCCNC(=O)N[C@@H]1c2ccccc2C[C@@H]1O)S(C)(=O)=O`: the “TSA(with NAD+) / Primary screening (TSA) / delta Tm (K)” value is -0.05 K.
Consider `Cn1c(SCc2nc3ccccc3s2)nc2ccsc2c1=O`, for which the “TSA(with NAD+) / Primary screening (TSA) / delta Tm (K)” value is -0.11 K.
Consider `O=C(CCc1c[nH]c2ccccc12)Nc1cccc(S(=O)(=O)NCc2ccco2)c1`, for which the “TSA(with NAD+) / Primary screening (TSA) / delta Tm (K)” value is reported as 0.06 K.
On to `c1ccc(-n2ncc3c(N4CCCO4)ncnc32)cc1`, for which the “TSA(with NAD+) / Primary screening (TSA) / delta Tm (K)” value is -0.24 K.
The same measure for `C=CCN(c1ccc(Cl)cc1)S(=O)(=O)c1cccc(C(=O)Nc2ccc(C(N)=O)cc2)c1`: -0.03 K; for `COc1cc2nc(S)n(C)c(=O)c2cc1OC`: 0.09 K.
The same measure for `CCc1nn2c(=O)cc(CNc3ccc(F)cc3Cl)nc2s1`: 0.16 K; for `Cc1cc(C)n2nc(C(=O)Nc3ccccc3Cc3ccccc3)nc2n1`: -0.11 K; for `CCCCn1c(N)c(N(CC(C)C)C(=O)c2cccc(S(=O)(=O)N(C)c3ccc(C)cc3)c2)c(=O)[nH]c1=O`: -0.05 K.
Under `CC(Nc1ncnc2c(F)cccc12)c1ccc(NC(=O)NC2CC2)cc1` (centres unmarked) stands -0.08 K.
With `COc1cc(CN(C)C(=O)c2ccc3c(c2)NC(=O)CS3)ccc1OCc1ccccc1`, the “TSA(with NAD+) / Primary screening (TSA) / delta Tm (K)” value is listed as -0.18 K.
The same measure for `CCCCCCCC(=O)NCC(=O)O`: -0.18 K; for `Cc1nc(COc2ccc(C(=O)Nc3ccc(S(=O)(=O)Nc4cccc(F)c4)cc3)cc2)cs1`: -0.14 K; for `O=C(COC(=O)c1cccc(S(=O)(=O)N2CCc3ccccc32)c1)NC12CC3CC(CC(C3)C1)C2`: 0.08 K.
Under `O=C(Nc1ccc2c3c(cccc13)CC2)N1CCC(n2cncn2)CC1` stands -0.08 K; under `CC(C(N)=O)N(C)Cc1ccccc1OC(F)(F)F` (centres unmarked), -0.08 K.
In the case of `CC(C)C(=O)N1CCC(C(=O)N2CCc3cc(S(=O)(=O)N(C)C)ccc32)CC1`, the “TSA(with NAD+) / Primary screening (TSA) / delta Tm (K)” value amounted to 0.01 K.
For `NC(=O)N1CCCC(C(=O)NCc2nncn2-c2ccccc2)C1` (centres unmarked), the “TSA(with NAD+) / Primary screening (TSA) / delta Tm (K)” value is 0.01 K.
Take `O=c1[nH]c2ccccc2c2nc(-c3cc(-c4ccccc4)n[nH]3)nn12`: the “TSA(with NAD+) / Primary screening (TSA) / delta Tm (K)” value is -0.01 K.
The same measure for `CC(C)N(CC(N)=O)CC(=O)Nc1ccc2oc3ccccc3c2c1`: -0.32 K.
The same measure for `COC(C)(C)CN`: -0.11 K; for `Cc1noc(C)c1CNc1ncnc2ccsc12`: -0.14 K; for `NC(=O)c1ccc2[nH]c3c(c2c1)CCCC3`: 0.15 K.
For `NC(=O)c1cc(NC(=O)CC(c2ccccc2)c2ccccc2)cc(C(N)=O)c1`, the “TSA(with NAD+) / Primary screening (TSA) / delta Tm (K)” value is on record as -0.06 K.
The same measure for `COC(=O)c1cc(Br)cc(C(=O)O)c1`: -0.52 K; for `CN(Cc1ccco1)C(=O)CSc1nccn1Cc1ccccn1`: 0.05 K.
On to `COc1cccc(C(=O)C2=C(O)C(=O)N(CCCN3CCOCC3)C2c2ccc(C)o2)c1` (centres unmarked), for which the “TSA(with NAD+) / Primary screening (TSA) / delta Tm (K)” value is given as -0.18 K.
As for `Cc1nc(-c2ccc(NC(=O)C3Cc4ccccc4O3)cc2)co1` (centres unmarked), the “TSA(with NAD+) / Primary screening (TSA) / delta Tm (K)” value is on record as -0.01 K.
As for `O=C(COc1ccc(Cl)cc1)OCCCC(=O)c1ccc(F)cc1`, the “TSA(with NAD+) / Primary screening (TSA) / delta Tm (K)” value came out at 0.06 K.
Under `Cc1c(-c2ccccc2)sc(NC(=O)C23CC4CC(CC(O)(C4)C2)C3)c1C(=O)N1CCOCC1` stands -0.06 K.
The same measure for `O=C(C1=C(O)C(=O)N(CCCN2CCOCC2)C1c1ccco1)c1cc2ccccc2o1` (centres unmarked): 0.09 K.
Under `COC(=O)C1Cc2ccccc2N1` (centres unmarked) stands -0.13 K; under `NC(=O)c1ccc(C(=O)N2Cc3cc4c(cc3C3(CCCC3)C2)OCCO4)cc1`, -0.05 K; under `CCOc1ccc(C2C(C(=O)c3sc(C)nc3C)=C(O)C(=O)N2CCCN2CCOCC2)cc1` (centres unmarked), -0.01 K.
As for `O=c1cc(NCC2COc3ccccc3O2)nc2ccccn12` (centres unmarked), the “TSA(with NAD+) / Primary screening (TSA) / delta Tm (K)” value is reported as -0.19 K.
For the compound `CC1CCN(c2nnc(SCC(=O)Nc3sc4c(c3C(N)=O)CCC4)n2C2CC2)CC1`, the “TSA(with NAD+) / Primary screening (TSA) / delta Tm (K)” value is -0.11 K.
The same measure for `O=C(NCc1ccc(S(=O)(=O)N2CCOCC2)cc1)C12CC3CC(C1)CC(c1ccccc1)(C3)C2`: 0.03 K.
`NC(=O)c1ccc(CN2CCSCC2)cc1`: the “TSA(with NAD+) / Primary screening (TSA) / delta Tm (K)” value was 0.07 K.
Take `N#CC(C(=O)c1ccc([N+](=O)[O-])s1)=C1Nc2ccccc2N1`: the “TSA(with NAD+) / Primary screening (TSA) / delta Tm (K)” value is listed as -0.02 K.
Regarding `NNC(=O)COc1ccccc1Cl`, the “TSA(with NAD+) / Primary screening (TSA) / delta Tm (K)” value was 0.05 K.
The same measure for `O=C(CSc1nnnn1-c1ccc(O)cc1)N1N=C(c2ccc3ccccc3c2)CC1c1ccccc1` (centres unmarked): 0.66 K.
The same measure for `O=c1[nH]c2ccccc2c(=O)n1CCSCCCO`: -0.08 K; for `O=C(NC1CCSc2ccccc21)c1ccc2c(=O)n3c(nc2c1)CCC3` (centres unmarked): -0.06 K; for `COc1ccccc1NC(=O)C1CCN(C(=O)Nc2ccc(C)cc2OCc2ccccc2)CC1`: 0.06 K.
